{
  "source": "the supplement of paper PMC6411743",
  "assay_in_all_cases": "NP40-soluble protein abundance relative to vehicle (solubility fold change) (ratio); higher = more soluble protein in presence of AMP-PNP",
  "key": {"[1]": {"molecular_target": "T1, PGLS (UniProt O95336)", "T1 sequence (whole entry)": "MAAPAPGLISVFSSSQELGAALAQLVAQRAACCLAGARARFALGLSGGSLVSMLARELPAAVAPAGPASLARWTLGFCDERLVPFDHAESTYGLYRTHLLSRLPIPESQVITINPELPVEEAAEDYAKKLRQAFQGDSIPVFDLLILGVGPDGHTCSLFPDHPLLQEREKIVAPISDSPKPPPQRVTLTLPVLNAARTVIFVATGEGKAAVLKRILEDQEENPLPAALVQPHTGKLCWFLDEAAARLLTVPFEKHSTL", "procedure,_shortened": "(§1)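 Data come from three independent experiments in which Dounce-homogenised Jurkat crude lysate was treated at eight concentrations from 0.1 to 10 mM. Treatment ran 10 min at room temperature and then 3 min at 37 °C, after which 0.8% NP40 and benzonase were added for 60 min at 4 °C before ultracentrifugation. The supernatant underwent TMT labelling and LC-MS/MS, and vsn-normalised intensities were expressed as fold change against the detergent-processed vehicle in each replicate.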"}, "[2]": {"molecular_target": "T2, SEC24A (UniProt O95486)", "T2 sequence (whole entry)": "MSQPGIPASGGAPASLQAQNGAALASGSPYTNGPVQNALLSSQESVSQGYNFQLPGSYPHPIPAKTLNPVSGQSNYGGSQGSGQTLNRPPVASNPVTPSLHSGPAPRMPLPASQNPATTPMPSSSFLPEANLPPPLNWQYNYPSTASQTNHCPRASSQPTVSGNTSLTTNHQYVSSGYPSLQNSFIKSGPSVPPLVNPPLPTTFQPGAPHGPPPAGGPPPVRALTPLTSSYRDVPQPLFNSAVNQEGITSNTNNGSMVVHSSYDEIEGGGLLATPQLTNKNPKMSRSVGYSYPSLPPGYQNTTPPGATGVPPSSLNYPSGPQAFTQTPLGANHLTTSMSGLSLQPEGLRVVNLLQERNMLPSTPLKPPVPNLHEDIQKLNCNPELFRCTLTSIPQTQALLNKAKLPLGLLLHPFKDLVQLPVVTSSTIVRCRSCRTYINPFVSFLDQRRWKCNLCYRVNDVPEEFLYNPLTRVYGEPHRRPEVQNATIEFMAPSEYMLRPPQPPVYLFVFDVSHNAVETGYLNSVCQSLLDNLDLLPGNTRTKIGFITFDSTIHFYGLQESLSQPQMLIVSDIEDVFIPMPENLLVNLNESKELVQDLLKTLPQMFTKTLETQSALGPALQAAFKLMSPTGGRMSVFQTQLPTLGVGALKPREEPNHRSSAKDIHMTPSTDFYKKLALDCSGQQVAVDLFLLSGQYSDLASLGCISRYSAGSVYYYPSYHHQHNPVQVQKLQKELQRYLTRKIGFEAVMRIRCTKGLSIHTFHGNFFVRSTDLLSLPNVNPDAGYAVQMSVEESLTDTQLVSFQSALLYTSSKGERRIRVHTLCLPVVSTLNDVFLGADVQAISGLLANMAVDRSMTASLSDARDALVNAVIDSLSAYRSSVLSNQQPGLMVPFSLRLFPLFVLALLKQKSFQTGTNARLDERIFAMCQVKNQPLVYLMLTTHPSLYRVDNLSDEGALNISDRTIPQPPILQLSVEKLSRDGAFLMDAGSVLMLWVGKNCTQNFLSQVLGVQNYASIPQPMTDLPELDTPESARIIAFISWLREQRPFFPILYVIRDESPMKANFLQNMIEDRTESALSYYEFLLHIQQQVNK", "procedure,_shortened": "as §1"}, "[3]": {"molecular_target": "T3, SPAG7 (UniProt O75391)", "T3 sequence (whole entry)": "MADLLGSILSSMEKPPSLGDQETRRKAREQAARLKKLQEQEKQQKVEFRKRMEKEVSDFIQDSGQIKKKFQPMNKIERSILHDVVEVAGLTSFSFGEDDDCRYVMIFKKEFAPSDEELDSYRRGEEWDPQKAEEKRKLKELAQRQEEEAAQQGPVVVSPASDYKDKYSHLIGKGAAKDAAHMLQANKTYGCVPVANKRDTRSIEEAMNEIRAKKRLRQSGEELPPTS", "procedure,_shortened": "as §1"}, "[4]": {"molecular_target": "T4, USP1 (UniProt O94782)", "T4 sequence (whole entry)": "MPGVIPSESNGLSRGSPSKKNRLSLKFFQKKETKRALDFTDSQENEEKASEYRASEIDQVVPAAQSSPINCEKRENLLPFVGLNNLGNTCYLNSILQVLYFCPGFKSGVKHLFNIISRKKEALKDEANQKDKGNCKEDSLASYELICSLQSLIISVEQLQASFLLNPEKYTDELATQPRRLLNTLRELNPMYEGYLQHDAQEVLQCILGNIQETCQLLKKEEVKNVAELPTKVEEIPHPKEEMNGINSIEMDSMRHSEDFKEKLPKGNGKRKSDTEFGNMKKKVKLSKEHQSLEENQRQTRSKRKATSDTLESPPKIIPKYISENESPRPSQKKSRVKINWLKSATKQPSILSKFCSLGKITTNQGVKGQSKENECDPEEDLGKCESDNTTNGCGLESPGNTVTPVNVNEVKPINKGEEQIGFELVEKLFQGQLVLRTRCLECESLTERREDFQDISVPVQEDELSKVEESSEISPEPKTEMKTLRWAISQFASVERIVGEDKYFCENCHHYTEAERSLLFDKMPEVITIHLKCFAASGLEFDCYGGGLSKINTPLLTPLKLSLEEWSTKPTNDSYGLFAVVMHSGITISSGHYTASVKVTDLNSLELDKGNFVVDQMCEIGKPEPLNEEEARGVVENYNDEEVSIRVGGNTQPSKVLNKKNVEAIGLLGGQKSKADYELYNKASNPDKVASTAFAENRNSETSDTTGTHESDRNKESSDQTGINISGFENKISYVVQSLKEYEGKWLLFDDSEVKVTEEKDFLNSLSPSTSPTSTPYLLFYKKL", "procedure,_shortened": "as §1"}, "[5]": {"molecular_target": "T5, UniProt O60671 and related entries", "T5 sequence (whole entry)": "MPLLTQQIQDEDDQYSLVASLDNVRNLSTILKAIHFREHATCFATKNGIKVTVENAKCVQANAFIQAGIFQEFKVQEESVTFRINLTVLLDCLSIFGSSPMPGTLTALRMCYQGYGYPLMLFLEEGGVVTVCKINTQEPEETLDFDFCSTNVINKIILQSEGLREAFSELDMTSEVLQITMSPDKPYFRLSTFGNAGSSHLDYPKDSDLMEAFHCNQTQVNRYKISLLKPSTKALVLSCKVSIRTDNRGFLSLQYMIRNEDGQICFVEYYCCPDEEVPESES", "procedure,_shortened": "as §1"}},
  "note": "± gives the standard deviation of the averaged measurements. The entries are a selection whose mix differs from that of the whole data set.",
  "data": [
    {"smiles": "Nc1ncnc2c1ncn2[C@@H]1O[C@H](COP(=O)(O)OP(=O)(O)NP(=O)(O)O)[C@@H](O)[C@H]1O", "note": "[adenylyl imidodiphosphate]", "values": [
      {"measurement": "NP40-soluble protein abundance", "setting": "[1]; concentration: 6mM", "value": "1 ± 0.11"},
      {"measurement": "NP40-soluble protein abundance", "setting": "[1]; concentration: 8mM", "value": "1.03 ± 0.06"},
      {"measurement": "NP40-soluble protein abundance", "setting": "[1]; concentration: 10mM", "value": "0.967 ± 0.1"},
      {"measurement": "NP40-soluble protein abundance", "setting": "[2]; concentration: 1mM", "value": "0.974 ± 0.019"},
      {"measurement": "NP40-soluble protein abundance", "setting": "[2]; concentration: 2mM", "value": "0.933 ± 0.06"},
      {"measurement": "NP40-soluble protein abundance", "setting": "[2]; concentration: 4mM", "value": "0.9772 ± 0.008"},
      {"measurement": "NP40-soluble protein abundance", "setting": "[2]; concentration: 6mM", "value": "0.9544 ± 0.0079"},
      {"measurement": "NP40-soluble protein abundance", "setting": "[2]; concentration: 8mM", "value": "0.956 ± 0.024"},
      {"measurement": "NP40-soluble protein abundance", "setting": "[2]; concentration: 10mM", "value": "0.9188 ± 0.0071"},
      {"measurement": "NP40-soluble protein abundance", "setting": "[3]; concentration: 1mM", "value": "0.9725 ± 0.0086"},
      {"measurement": "NP40-soluble protein abundance", "setting": "[3]; concentration: 2mM", "value": "1.03 ± 0.058"},
      {"measurement": "NP40-soluble protein abundance", "setting": "[3]; concentration: 4mM", "value": "0.966 ± 0.031"},
      {"measurement": "NP40-soluble protein abundance", "setting": "[3]; concentration: 6mM", "value": "0.952 ± 0.016"},
      {"measurement": "NP40-soluble protein abundance", "setting": "[3]; concentration: 8mM", "value": "0.9328 ± 0.0069"},
      {"measurement": "NP40-soluble protein abundance", "setting": "[3]; concentration: 10mM", "value": "0.91 ± 0.061"},
      {"measurement": "NP40-soluble protein abundance", "setting": "[4]; concentration: 1mM", "value": "0.999 ± 0.059"},
      {"measurement": "NP40-soluble protein abundance", "setting": "[4]; concentration: 2mM", "value": "1.01 ± 0.056"},
      {"measurement": "NP40-soluble protein abundance", "setting": "[4]; concentration: 4mM", "value": "0.999 ± 0.065"},
      {"measurement": "NP40-soluble protein abundance", "setting": "[4]; concentration: 6mM", "value": "0.978 ± 0.033"},
      {"measurement": "NP40-soluble protein abundance", "setting": "[4]; concentration: 8mM", "value": "0.967 ± 0.017"},
      {"measurement": "NP40-soluble protein abundance", "setting": "[4]; concentration: 10mM", "value": "0.973 ± 0.042"},
      {"measurement": "NP40-soluble protein abundance", "setting": "[5]; concentration: 1mM", "value": "0.97 ± 0.048"},
      {"measurement": "NP40-soluble protein abundance", "setting": "[5]; concentration: 2mM", "value": "0.949 ± 0.024"},
      {"measurement": "NP40-soluble protein abundance", "setting": "[5]; concentration: 4mM", "value": "0.987 ± 0.061"},
      {"measurement": "NP40-soluble protein abundance", "setting": "[5]; concentration: 6mM", "value": "1.03 ± 0.052"},
      {"measurement": "NP40-soluble protein abundance", "setting": "[5]; concentration: 8mM", "value": "1.02 ± 0.036"},
      {"measurement": "NP40-soluble protein abundance", "setting": "[5]; concentration: 10mM", "value": "0.98 ± 0.037"}
    ]}
  ]
}
